Test results as given in patent publication US20220380444A1.

How the values were obtained:
rat C7 protein (rat) [1] = assay: direct ELISA, rat C7 on the well, antibody titrated
rat C7 protein (rat) [2] = assay: western blot
[3] = target: cynomolgus monkey C7 protein (cynomolgus monkey); assay: western blot
rat C7 protein (rat) [4] = assay: western blot, non-reduced rat serum
rat C7 protein (rat) [5] = assay: western blot of serum, non-reducing conditions (no detection under reducing conditions)
rat C7 protein (rat) [6] = assay: sandwich ELISA, 2H2 coated as capture, rat C7 titrated, polyclonal anti-C7 as detection
[7] = target: cynomolgus monkey C7 protein (cynomolgus monkey); assay: western blot, non-reduced monkey serum
rat C7 protein (rat) [8] = assay: sandwich ELISA, 2H2 coated as capture, rat C7 titrated, goat anti-C7 as detection
rat C7 protein (rat) [9] = assay: western blot of rat serum, non-reduced and reduced
rat C7 protein (rat) [10] = assay: direct ELISA, C7 coated on plate
[11] = target: cynomolgus monkey C7 protein (cynomolgus monkey); assay: direct ELISA, C7 coated on plate
rat C7 protein (rat) [12] = assay: direct ELISA and sandwich ELISA
rat C7 protein (rat) [13] = assay: SPR (Biacore)
[14] = target: cynomolgus monkey C7 protein (cynomolgus monkey); assay: direct ELISA, cynomolgus C7 immobilised on the well ('C7 Cyno Capture'), antibody titrated

B1: monoclonal anti-C7 antibody 2H2 (antibody, IgG2b, V domains shown)
VH: QVQLQQPGAELMKPGASVKLSCKASGYIFTSYWMHWVKQRPGRGLEWIGRIDPNSGGTNYNEKFKSKATLTVDKPSSTVYMKISSLTSEDSAVYYCAREHDYDYAMDYWGQGTSVTVSS
VL: DIVMTQAAPSVPVTPGESVSISCRSSKSLLHSNGNTYLYWFLQRPGQSPQLLIYRMSNLASGVPDRFSGSGSGTAFTLRISRVEAEDVGVYYCMQHLEYPFTFGSGTKLEIK
binding (rat C7 protein (rat) [1]): binds | binding (rat C7 protein (rat) [2]): binds | binding [3]: binds | binding (rat C7 protein (rat) [4]): binds | binding (rat C7 protein (rat) [5]): binds | binding (rat C7 protein (rat) [6]): binds | binding [7]: binds | binding (rat C7 protein (rat) [8]): binds | binding (rat C7 protein (rat) [9]): binds | binding (rat C7 protein (rat) [10]): binds | binding [11]: binds | binding (rat C7 protein (rat) [12]): binds

B2: monoclonal anti-C7 antibody 73D1 (antibody, IgG2a, V domains shown)
VH: EVQLQQSGPELVKPGASVKMSCKASGYTFTDYNMHWVKQSHGKSLEWIGYINPNNGGPSYNQNFKGKATLTVNKSSSTAYMELRSLTSEDSAVYYCACGNYPDYWGQGTTLTVSS
VL: DIQMTQSPASLSASVGETVTITCRASGNIHNYLAWYQQKQGKSPQLLVYNAKTLADGVPSRFSGSGSGTQYSLKINSLQPEDFGSYYCQHFWSTPLTFGAGTKLELK
binding (rat C7 protein (rat) [1]): binds | binding (rat C7 protein (rat) [2]): binds | binding [3]: binds | binding (rat C7 protein (rat) [4]): binds | binding [7]: binds | binding (rat C7 protein (rat) [13]): binds | binding (rat C7 protein (rat) [10]): binds | binding [11]: binds

B3: monoclonal anti-C7 antibody 17E7 (antibody, IgG2a, V domains shown)
VH: EVQLQQSGTVLARPGASVKMSCKTSGYSFTTYWMHWVKQRPGQGLEWIGAIYPGNSDTYYSQKFKDKAKLTAVTSASTAYMELSSLTNEDSAVYYCTRSGGYDVGGLDYWGQGTTLTVSS
VL: DIVMTQSPATLSVTPGDGVSLSCRASQSISDYLHWYQQKSHESPRLLIKFASQSISGIPSRFSGSGSGSDFTLSINSVEPEDVGMYYCQNGHSFPFTFGSGTKLELK
binding (rat C7 protein (rat) [1]): no binding (tested: 10 µg/ml) | binding [14]: binds | binding [11]: binds

No constants are given. Whether binding was seen depends on the method and setting. Binding calls can cover weak binding; strength is not graded here.
